Measured values published in PMC10154236.
These are yes or no findings as the source states them, for the method shown. Binding seen in cells or lysates may run through a third protein. Some binding calls cover weakened binding; strength is not graded here. Where a sequence is shown, tags or fusion partners need not be part of it.

T1: HA::RNP-6 (C. elegans) (UniProt Q9N3S4)
T1 sequence: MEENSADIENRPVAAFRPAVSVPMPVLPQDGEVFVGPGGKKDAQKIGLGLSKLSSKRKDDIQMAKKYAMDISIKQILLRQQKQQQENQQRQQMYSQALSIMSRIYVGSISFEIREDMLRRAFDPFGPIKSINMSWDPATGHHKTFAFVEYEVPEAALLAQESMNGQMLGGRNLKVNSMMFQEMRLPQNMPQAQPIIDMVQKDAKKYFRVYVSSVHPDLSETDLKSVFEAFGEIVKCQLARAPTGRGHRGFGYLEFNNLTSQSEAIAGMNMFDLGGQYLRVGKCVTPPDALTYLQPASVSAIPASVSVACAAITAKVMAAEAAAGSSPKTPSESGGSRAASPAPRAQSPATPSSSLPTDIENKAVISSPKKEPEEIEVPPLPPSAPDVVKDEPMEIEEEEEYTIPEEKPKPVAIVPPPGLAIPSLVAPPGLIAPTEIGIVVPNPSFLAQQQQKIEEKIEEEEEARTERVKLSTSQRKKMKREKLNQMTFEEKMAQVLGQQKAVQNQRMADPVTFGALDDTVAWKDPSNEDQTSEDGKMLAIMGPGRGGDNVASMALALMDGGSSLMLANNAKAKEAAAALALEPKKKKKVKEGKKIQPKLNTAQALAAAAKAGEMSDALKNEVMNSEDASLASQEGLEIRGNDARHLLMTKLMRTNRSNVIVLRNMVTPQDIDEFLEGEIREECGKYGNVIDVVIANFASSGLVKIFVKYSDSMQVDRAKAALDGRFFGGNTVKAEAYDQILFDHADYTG

T2: RBM-39::mKate2 (C. elegans) (UniProt Q9N368)
T2 sequence: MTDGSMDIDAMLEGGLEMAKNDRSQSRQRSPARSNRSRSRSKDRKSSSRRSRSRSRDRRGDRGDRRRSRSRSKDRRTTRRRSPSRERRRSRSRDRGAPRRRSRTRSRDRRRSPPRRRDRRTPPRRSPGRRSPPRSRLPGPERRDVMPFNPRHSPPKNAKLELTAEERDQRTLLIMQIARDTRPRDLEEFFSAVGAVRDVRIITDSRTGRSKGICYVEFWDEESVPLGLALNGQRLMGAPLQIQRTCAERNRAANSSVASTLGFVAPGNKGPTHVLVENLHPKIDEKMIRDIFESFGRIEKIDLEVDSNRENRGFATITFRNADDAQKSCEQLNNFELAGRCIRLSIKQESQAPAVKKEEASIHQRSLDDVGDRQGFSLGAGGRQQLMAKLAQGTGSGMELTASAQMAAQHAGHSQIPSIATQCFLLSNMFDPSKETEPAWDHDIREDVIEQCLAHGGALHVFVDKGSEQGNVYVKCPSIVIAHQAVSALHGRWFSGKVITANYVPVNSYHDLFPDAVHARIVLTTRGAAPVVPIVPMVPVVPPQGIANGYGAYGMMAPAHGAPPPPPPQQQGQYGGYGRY


Assays:
HA::RNP-6 (C. elegans) = target: T1, HA::RNP-6 (C. elegans); experiment: co-IP; lysates of worms expressing HA::RNP-6, RBM-39::mKate2 or both; 0.5% NP40, 150 mM NaCl, 50 mM Tris pH 7.4; antibodies against mKate2 and HA used for immunoprecipitation and western blot; n = 1
[1] = target: T2, RBM-39::mKate2 (C. elegans); experiment: as above

| Binder | binding (HA::RNP-6 (C. elegans)) | binding [1] |
| --- | --- | --- |
| RBM-39::mKate2 (protein, UniProt Q9N368 1-580) MTDGSMDIDAMLEGGLEMAKNDRSQSRQRSPARSNRSRSRSKDRKSSSRRSRSRSRDRRGDRGDRRRSRSRSKDRRTTRRRSPSRERRRSRSRDRGAPRRRSRTRSRDRRRSPPRRRDRRTPPRRSPGRRSPPRSRLPGPERRDVMPFNPRHSPPKNAKLELTAEERDQRTLLIMQIARDTRPRDLEEFFSAVGAVRDVRIITDSRTGRSKGICYVEFWDEESVPLGLALNGQRLMGAPLQIQRTCAERNRAANSSVASTLGFVAPGNKGPTHVLVENLHPKIDEKMIRDIFESFGRIEKIDLEVDSNRENRGFATITFRNADDAQKSCEQLNNFELAGRCIRLSIKQESQAPAVKKEEASIHQRSLDDVGDRQGFSLGAGGRQQLMAKLAQGTGSGMELTASAQMAAQHAGHSQIPSIATQCFLLSNMFDPSKETEPAWDHDIREDVIEQCLAHGGALHVFVDKGSEQGNVYVKCPSIVIAHQAVSALHGRWFSGKVITANYVPVNSYHDLFPDAVHARIVLTTRGAAPVVPIVPMVPVVPPQGIANGYGAYGMMAPAHGAPPPPPPQQQGQYGGYGRY | binds |  |
| HA::RNP-6 (protein, UniProt Q9N3S4 1-749) MEENSADIENRPVAAFRPAVSVPMPVLPQDGEVFVGPGGKKDAQKIGLGLSKLSSKRKDDIQMAKKYAMDISIKQILLRQQKQQQENQQRQQMYSQALSIMSRIYVGSISFEIREDMLRRAFDPFGPIKSINMSWDPATGHHKTFAFVEYEVPEAALLAQESMNGQMLGGRNLKVNSMMFQEMRLPQNMPQAQPIIDMVQKDAKKYFRVYVSSVHPDLSETDLKSVFEAFGEIVKCQLARAPTGRGHRGFGYLEFNNLTSQSEAIAGMNMFDLGGQYLRVGKCVTPPDALTYLQPASVSAIPASVSVACAAITAKVMAAEAAAGSSPKTPSESGGSRAASPAPRAQSPATPSSSLPTDIENKAVISSPKKEPEEIEVPPLPPSAPDVVKDEPMEIEEEEEYTIPEEKPKPVAIVPPPGLAIPSLVAPPGLIAPTEIGIVVPNPSFLAQQQQKIEEKIEEEEEARTERVKLSTSQRKKMKREKLNQMTFEEKMAQVLGQQKAVQNQRMADPVTFGALDDTVAWKDPSNEDQTSEDGKMLAIMGPGRGGDNVASMALALMDGGSSLMLANNAKAKEAAAALALEPKKKKKVKEGKKIQPKLNTAQALAAAAKAGEMSDALKNEVMNSEDASLASQEGLEIRGNDARHLLMTKLMRTNRSNVIVLRNMVTPQDIDEFLEGEIREECGKYGNVIDVVIANFASSGLVKIFVKYSDSMQVDRAKAALDGRFFGGNTVKAEAYDQILFDHADYTG |  | binds |
